The supplement of paper PMC10849652
This is one part of the list.

By UniProt entry, the sequences of proteins in these tests, tags left out. Where a name states a change or a piece, a line headed by the entry shows the natural chain unless it says otherwise.
UniProt Q9Y3L3: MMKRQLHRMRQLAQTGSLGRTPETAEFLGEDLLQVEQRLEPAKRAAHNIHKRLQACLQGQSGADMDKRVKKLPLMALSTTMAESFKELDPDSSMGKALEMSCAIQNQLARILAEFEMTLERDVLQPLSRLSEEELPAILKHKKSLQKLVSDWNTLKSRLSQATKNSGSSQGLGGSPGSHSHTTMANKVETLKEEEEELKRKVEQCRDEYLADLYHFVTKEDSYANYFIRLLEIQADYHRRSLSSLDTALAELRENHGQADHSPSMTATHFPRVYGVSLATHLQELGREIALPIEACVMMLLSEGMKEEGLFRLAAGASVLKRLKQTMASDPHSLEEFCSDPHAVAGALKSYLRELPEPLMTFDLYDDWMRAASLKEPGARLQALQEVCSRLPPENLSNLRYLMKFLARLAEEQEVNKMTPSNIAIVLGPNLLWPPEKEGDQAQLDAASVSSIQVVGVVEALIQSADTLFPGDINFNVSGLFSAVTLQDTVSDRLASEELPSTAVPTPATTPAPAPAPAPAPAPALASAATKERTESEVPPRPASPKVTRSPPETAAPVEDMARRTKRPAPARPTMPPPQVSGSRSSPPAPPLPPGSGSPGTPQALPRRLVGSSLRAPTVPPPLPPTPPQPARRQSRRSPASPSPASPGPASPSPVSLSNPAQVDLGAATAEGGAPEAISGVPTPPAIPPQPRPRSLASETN
UniProt Q12874: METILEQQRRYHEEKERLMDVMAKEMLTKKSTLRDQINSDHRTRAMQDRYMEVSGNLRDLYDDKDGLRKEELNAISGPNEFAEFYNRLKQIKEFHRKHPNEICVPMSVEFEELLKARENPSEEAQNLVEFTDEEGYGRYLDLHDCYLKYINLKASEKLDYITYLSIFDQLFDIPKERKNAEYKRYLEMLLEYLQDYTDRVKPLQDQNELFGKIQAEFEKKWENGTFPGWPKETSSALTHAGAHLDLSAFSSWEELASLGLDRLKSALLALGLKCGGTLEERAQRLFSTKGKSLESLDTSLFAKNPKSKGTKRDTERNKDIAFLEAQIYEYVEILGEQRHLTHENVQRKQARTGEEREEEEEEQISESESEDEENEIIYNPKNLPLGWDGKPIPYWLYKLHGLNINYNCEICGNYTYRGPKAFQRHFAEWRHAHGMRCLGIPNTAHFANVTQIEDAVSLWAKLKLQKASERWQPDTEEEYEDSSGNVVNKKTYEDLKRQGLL
UniProt Q9UJC5: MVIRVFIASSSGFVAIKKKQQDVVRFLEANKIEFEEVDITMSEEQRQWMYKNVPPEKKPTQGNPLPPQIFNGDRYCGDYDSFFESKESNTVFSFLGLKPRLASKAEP
UniProt Q9Y3B4: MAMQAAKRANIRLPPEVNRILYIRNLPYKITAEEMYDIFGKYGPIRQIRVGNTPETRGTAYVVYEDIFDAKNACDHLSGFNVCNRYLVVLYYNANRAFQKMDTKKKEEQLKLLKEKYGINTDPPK
UniProt P23246: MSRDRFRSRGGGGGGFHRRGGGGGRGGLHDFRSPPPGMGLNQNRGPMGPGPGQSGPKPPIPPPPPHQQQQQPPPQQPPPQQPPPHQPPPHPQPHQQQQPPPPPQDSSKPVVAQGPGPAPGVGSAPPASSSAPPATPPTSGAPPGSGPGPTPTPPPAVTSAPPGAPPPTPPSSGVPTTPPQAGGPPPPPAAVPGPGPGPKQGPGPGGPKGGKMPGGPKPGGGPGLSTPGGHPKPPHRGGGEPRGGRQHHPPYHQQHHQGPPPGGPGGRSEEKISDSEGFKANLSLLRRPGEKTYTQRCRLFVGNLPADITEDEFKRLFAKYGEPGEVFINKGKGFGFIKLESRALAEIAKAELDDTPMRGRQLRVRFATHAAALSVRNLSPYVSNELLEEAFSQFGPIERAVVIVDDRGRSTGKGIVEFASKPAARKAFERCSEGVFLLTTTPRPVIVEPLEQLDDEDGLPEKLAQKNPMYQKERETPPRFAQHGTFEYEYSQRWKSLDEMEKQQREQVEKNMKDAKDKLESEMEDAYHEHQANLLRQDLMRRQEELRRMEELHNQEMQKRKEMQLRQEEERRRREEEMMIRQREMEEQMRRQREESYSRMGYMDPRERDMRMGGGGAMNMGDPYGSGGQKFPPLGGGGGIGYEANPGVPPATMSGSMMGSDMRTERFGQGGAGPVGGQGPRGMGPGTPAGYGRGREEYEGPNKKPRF
UniProt Q15427: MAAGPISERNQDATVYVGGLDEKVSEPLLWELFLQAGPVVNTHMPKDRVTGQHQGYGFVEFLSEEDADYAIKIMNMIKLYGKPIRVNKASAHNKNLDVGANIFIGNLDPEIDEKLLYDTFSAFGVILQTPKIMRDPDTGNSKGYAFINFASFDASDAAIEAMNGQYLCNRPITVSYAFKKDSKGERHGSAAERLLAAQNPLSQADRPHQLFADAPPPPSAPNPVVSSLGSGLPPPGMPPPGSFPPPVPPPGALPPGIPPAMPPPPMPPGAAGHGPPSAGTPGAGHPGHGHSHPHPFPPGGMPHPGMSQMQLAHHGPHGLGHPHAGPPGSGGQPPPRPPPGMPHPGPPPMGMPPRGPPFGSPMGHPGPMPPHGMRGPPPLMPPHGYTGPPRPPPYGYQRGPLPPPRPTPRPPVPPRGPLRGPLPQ
UniProt Q2M3G4: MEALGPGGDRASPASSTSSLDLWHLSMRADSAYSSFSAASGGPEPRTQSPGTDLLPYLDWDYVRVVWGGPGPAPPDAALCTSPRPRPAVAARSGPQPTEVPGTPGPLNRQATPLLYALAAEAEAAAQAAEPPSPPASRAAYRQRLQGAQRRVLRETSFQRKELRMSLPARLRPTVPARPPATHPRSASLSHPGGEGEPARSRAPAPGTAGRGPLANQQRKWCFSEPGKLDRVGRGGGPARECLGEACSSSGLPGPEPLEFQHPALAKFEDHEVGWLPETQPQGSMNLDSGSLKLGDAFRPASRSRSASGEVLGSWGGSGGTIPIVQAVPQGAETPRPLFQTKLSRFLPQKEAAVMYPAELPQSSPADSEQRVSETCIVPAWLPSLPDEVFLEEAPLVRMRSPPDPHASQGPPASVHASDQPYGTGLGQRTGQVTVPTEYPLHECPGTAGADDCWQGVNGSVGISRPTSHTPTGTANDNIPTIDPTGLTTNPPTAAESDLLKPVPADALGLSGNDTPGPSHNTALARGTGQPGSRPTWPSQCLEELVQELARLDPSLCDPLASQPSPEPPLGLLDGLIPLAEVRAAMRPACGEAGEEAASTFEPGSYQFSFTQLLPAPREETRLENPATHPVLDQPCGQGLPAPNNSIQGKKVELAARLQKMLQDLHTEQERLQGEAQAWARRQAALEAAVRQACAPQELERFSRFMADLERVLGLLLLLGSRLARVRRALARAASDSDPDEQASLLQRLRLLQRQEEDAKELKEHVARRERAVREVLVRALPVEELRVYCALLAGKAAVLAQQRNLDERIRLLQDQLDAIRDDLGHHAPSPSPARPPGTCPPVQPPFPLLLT
UniProt A0MZ66, whole entry, looked up: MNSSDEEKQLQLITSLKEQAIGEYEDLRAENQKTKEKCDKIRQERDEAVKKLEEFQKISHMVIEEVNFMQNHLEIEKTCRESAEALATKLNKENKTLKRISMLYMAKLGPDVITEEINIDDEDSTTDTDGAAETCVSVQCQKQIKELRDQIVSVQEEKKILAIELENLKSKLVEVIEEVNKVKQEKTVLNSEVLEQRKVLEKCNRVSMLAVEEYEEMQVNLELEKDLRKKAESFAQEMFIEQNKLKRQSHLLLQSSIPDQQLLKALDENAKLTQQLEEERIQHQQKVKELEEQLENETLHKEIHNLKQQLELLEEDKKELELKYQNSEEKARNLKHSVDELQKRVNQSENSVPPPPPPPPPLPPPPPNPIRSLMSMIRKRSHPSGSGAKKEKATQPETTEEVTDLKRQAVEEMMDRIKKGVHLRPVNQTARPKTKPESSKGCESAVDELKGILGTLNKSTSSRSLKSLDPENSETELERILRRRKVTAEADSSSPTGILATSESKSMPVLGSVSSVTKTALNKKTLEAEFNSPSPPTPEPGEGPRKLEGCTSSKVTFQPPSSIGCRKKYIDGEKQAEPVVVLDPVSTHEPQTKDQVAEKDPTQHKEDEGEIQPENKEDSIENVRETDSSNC
UniProt Q8IXJ6: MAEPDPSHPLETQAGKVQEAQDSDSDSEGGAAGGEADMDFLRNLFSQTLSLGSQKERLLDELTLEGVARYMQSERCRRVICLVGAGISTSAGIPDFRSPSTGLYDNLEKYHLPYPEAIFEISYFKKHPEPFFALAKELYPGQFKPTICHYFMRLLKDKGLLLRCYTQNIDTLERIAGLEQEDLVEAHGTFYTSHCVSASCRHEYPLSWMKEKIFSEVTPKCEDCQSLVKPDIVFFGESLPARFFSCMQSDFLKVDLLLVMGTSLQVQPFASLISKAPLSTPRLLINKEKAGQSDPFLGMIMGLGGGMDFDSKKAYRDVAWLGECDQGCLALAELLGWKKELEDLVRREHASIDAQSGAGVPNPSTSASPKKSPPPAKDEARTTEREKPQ
UniProt O95562: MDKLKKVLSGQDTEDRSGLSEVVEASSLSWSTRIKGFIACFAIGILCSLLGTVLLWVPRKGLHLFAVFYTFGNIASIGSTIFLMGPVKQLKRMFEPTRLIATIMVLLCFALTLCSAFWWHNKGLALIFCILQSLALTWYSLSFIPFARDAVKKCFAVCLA
UniProt P29353: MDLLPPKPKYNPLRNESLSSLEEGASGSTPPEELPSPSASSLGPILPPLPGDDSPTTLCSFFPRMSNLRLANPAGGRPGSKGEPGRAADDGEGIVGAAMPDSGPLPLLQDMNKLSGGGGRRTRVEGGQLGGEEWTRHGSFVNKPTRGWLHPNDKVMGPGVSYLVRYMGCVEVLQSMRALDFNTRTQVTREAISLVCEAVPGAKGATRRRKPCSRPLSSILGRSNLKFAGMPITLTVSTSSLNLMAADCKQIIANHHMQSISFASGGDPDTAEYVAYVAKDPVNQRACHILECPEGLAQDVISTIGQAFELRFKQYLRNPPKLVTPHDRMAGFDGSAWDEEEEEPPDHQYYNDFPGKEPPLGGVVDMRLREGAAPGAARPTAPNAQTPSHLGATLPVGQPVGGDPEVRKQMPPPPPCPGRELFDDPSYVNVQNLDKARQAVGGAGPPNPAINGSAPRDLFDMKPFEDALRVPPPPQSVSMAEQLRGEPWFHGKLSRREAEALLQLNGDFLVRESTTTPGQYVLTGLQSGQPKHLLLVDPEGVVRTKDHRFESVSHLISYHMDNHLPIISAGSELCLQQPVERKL
UniProt Q96ES7: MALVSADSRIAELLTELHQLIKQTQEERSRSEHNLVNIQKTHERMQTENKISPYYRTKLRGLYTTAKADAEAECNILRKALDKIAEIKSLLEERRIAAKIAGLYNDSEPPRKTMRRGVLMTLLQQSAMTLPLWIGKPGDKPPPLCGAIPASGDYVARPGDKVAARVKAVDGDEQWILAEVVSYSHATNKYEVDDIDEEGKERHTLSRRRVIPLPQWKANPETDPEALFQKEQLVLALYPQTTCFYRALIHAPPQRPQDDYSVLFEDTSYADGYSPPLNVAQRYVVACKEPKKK
UniProt Q9H9B4: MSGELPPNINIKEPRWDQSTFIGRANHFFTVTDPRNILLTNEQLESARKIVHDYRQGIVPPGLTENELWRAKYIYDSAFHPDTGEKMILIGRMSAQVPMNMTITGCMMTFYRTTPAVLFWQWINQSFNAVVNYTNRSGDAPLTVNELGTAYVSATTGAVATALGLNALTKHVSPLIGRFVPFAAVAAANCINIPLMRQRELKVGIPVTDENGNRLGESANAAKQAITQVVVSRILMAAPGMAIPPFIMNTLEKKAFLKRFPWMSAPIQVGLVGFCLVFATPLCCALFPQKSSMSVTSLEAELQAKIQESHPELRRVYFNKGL
UniProt Q53H47: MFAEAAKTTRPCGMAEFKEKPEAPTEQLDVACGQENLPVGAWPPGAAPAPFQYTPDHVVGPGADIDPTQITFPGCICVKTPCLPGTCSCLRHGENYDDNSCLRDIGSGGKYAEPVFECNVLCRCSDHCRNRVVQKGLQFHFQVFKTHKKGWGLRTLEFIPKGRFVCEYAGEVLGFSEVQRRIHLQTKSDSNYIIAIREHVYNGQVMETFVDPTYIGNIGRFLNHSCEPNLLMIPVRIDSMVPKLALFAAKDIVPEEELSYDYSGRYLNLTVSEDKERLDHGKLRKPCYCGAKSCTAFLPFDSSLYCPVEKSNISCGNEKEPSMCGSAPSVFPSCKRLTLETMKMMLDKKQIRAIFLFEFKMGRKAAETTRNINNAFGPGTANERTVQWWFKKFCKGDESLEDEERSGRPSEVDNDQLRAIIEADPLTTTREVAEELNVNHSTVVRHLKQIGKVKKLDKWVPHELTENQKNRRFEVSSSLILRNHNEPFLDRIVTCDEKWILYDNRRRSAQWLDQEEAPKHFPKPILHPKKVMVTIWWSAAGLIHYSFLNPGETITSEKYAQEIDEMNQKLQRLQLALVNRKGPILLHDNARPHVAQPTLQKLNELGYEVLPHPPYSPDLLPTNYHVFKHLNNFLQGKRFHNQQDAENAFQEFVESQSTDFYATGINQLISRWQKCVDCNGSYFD

Experiments:
Test in all cases: log2 fold change, soluble protein after heating vs DMSO (PISA); higher = thermal stabilisation; K562 lysate, 10 uM; active = over 0.2 and 3.5 SD of the protein, either way, in both replicates (recomputed)
nilotinib = compound: Cc1cn(-c2cc(NC(=O)c3ccc(C)c(Nc4nccc(-c5cccnc5)n4)c3)cc(C(F)(F)F)c2)cn1 [nilotinib]
Outline: (§1)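 Values give the log-two fold change in thermal stability against solvent controls, from duplicates. Crude K562 extract at 1 mg/mL protein, made by dounce homogenisation in PBS pH 7.4 with 1 mM MgCl2, was treated with 10 μM compound for 30 min. After 3 min heating across 48°C-58°C, aliquots were pooled, adjusted to 0.5% NP-40 at 4°C and centrifuged at 21,000xg for 90 min. The supernatant was measured by TMTpro 16plex LC-MS/MS with channel sums equalised.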

[1] = compound: Cc1nc(Nc2n[nH]c3c2CN(C(=O)N[C@H](CN(C)C)c2ccccc2)C3(C)C)c2sccc2n1
Outline: as §1

dasatinib = compound: Cc1nc(Nc2ncc(C(=O)Nc3c(C)cccc3Cl)s2)cc(N2CCN(CCO)CC2)n1 [dasatinib]
Outline: as §1

[2] = compound: Cc1ncc(-c2ccnc(Nc3ccc(S(C)(=O)=O)cc3)n2)n1C(C)C
Outline: as §1

[3] = compound: Cn1cc(-c2ccc3c(c2)CCN3C(=O)Cc2cccc(C(F)(F)F)c2)c2c(N)ncnc21
Outline: as §1

quisinostat = compound: Cn1cc(CNCC2CCN(c3ncc(C(=O)NO)cn3)CC2)c2ccccc21 [quisinostat]
Outline: as §1

tipifarnib = compound: Cn1cncc1[C@@](N)(c1ccc(Cl)cc1)c1ccc2c(c1)c(-c1cccc(Cl)c1)cc(=O)n2C [tipifarnib]
Outline: as §1

[4] = compound: NC(=O)Nc1cc(-c2cccc(F)c2)sc1C(=O)N[C@H]1CCCNC1
Outline: as §1

[5] = compound: NC(=O)c1cnc(N[C@@H]2CCCC[C@@H]2N)nc1Nc1cccc(-n2nccn2)c1
Outline: as §1

[6] = compound: NC1(c2ccc(-c3nc4ccn5c(=O)[nH]nc5c4cc3-c3ccccc3)cc2)CCC1
Outline: as §1

[7] = compound: NCC(=O)Nc1ccc(-n2nc(C(F)(F)F)cc2-c2ccc3c(ccc4ccccc43)c2)cc1
Outline: as §1

vorinostat = compound: O=C(CCCCCCC(=O)Nc1ccccc1)NO [vorinostat]
Outline: as §1

silmitasertib = compound: O=C(O)c1ccc2c(c1)nc(Nc1cccc(Cl)c1)c1ccncc12 [silmitasertib]
Outline: as §1

[8] = compound: O=C1NC(=O)C(c2cnc3ccccn23)=C1c1cn2c3c(cc(F)cc13)CN(C(=O)N1CCCCC1)CC2
Outline: as §1

entospletinib = compound: c1cn2cc(-c3ccc4cn[nH]c4c3)nc(Nc3ccc(N4CCOCC4)cc3)c2n1 [entospletinib]
Outline: as §1

Measured: log2 fold change

SH3BP1 (UniProt Q9Y3L3)
inactive: nilotinib -0.003 | [1] -0.024 | dasatinib -0.008 | [2] 0.033 | [3] 0.026 | quisinostat 0.024 | tipifarnib 0.035 | [4] -0.002 | [5] 0.019 | [6] 0.016 | [7] 0.12 | vorinostat 0.189 | silmitasertib -0.045 | [8] 0.036 | entospletinib -0.038

SH3GL3 isoform 3 (UniProt Q99963)
inactive: nilotinib -0.075 | [1] -0.113 | dasatinib -0.067 | [2] 0.096 | [3] -0.007 | quisinostat -0.033 | tipifarnib 0.029 | [4] 0.075 | [5] 0.024 | [6] -0.011 | [7] 0.108 | vorinostat -0.091 | silmitasertib 0.028 | [8] 0.01 | entospletinib 0.01

SF3A3 (UniProt Q12874)
inactive: nilotinib -0.023 | [1] -0.013 | dasatinib -0.022 | [2] -0.047 | [3] -0.003 | quisinostat 0.065 | tipifarnib 0 | [4] 0.022 | [5] 0.012 | [6] 0.033 | [7] -0.019 | vorinostat -0.242 | silmitasertib 0.065 | [8] -0.028 | entospletinib 0.001

SH3BGRL2 (UniProt Q9UJC5)
inactive: nilotinib -0.001 | [1] -0.001 | dasatinib 0.077 | [2] -0.019 | [3] -0.033 | quisinostat -0.029 | tipifarnib 0.013 | [4] 0.009 | [5] -0.04 | [6] 0.032 | [7] -0.003 | vorinostat 0.153 | silmitasertib -0.011 | [8] 0.099 | entospletinib 0.04

SERPINC1 (UniProt P01008)
inactive: nilotinib 0.095 | [1] 0.086 | dasatinib 0 | [2] 0.108 | [3] 0.002 | quisinostat 0.05 | tipifarnib -0.089 | [4] -0.018 | [5] 0.013 | [6] -0.044 | [7] -0.112 | vorinostat 0.082 | silmitasertib -0.04 | [8] 0.093 | entospletinib -0.024

SF3B6 (UniProt Q9Y3B4)
inactive: nilotinib 0.045 | [1] 0.013 | dasatinib -0.036 | [2] -0.028 | [3] -0.038 | quisinostat 0.016 | tipifarnib 0.021 | [4] 0 | [5] -0.054 | [6] -0.03 | [7] 0.018 | silmitasertib 0.026 | [8] 0.007 | entospletinib -0.015
active: vorinostat -0.273

SFPQ (UniProt P23246)
inactive: nilotinib -0.029 | [1] 0.012 | dasatinib -0.018 | [2] -0.004 | [3] 0.018 | quisinostat 0.037 | tipifarnib 0.042 | [4] -0.009 | [5] 0.005 | [6] 0.009 | [7] 0.01 | vorinostat 0.015 | silmitasertib 0.023 | [8] -0.012 | entospletinib 0.009

SLAIN2 (UniProt Q9P270)
inactive: nilotinib -0.024 | [1] 0.012 | dasatinib 0.001 | [2] 0.005 | [3] -0.015 | quisinostat -0.022 | tipifarnib -0.011 | [4] 0.003 | [5] 0 | [6] 0.023 | [7] -0.005 | vorinostat -0.045 | silmitasertib -0.031 | [8] 0.02 | entospletinib 0

SERPINB1 (UniProt P30740)
inactive: nilotinib 0.018 | [1] -0.009 | dasatinib 0.026 | [2] 0.014 | [3] 0.007 | quisinostat 0.022 | tipifarnib 0.001 | [4] 0.002 | [5] -0.041 | [6] 0.009 | [7] -0.005 | vorinostat 0.115 | silmitasertib -0.013 | [8] -0.006 | entospletinib -0.002

SF3B4 (UniProt Q15427)
inactive: nilotinib 0.007 | [1] 0.062 | dasatinib 0.088 | [2] -0.016 | [3] -0.028 | quisinostat -0.055 | tipifarnib 0.037 | [4] 0.008 | [5] -0.001 | [6] -0.009 | [7] -0.049 | vorinostat 0.063 | silmitasertib -0.075 | [8] 0.042 | entospletinib -0.057

SLC20A1 (UniProt Q8WUM9)
inactive: nilotinib -0.021 | [1] -0.001 | dasatinib -0.023 | [2] -0.03 | [3] 0.007 | quisinostat -0.048 | tipifarnib -0.007 | [4] -0.034 | [5] 0.05 | [6] -0.099 | [7] 0 | vorinostat 0.062 | silmitasertib -0.05 | [8] 0.021 | entospletinib 0.064

SHROOM1 (UniProt Q2M3G4)
inactive: nilotinib -0.017 | [1] -0.031 | dasatinib 0.061 | [2] 0.013 | [3] 0.03 | quisinostat -0.022 | tipifarnib 0.028 | [4] 0 | [5] -0.025 | [6] -0.049 | [7] 0.013 | vorinostat -0.156 | silmitasertib 0 | [8] -0.04 | entospletinib 0.018

SHTN1 (UniProt A0MZ66)
inactive: nilotinib 0.001 | [1] 0.009 | dasatinib -0.016 | [2] -0.002 | [3] 0.015 | quisinostat -0.011 | tipifarnib 0.002 | [4] 0.005 | [5] 0.007 | [6] 0.004 | [7] 0.027 | vorinostat 0.031 | silmitasertib 0 | [8] 0.009 | entospletinib -0.005

SIRT2 (UniProt Q8IXJ6)
inactive: nilotinib 0.005 | [1] 0.041 | dasatinib 0.015 | [2] -0.005 | [3] 0.043 | quisinostat 0.017 | tipifarnib -0.086 | [4] -0.05 | [5] -0.015 | [6] -0.027 | [7] -0.052 | vorinostat -0.026 | silmitasertib 0.051 | [8] 0.023 | entospletinib -0.047

Two neighbouring records from above, for reference:
SF3B4 (UniProt Q15427)
inactive: nilotinib 0.007 | [1] 0.062 | dasatinib 0.088 | [2] -0.016 | [3] -0.028 | quisinostat -0.055 | tipifarnib 0.037 | [4] 0.008 | [5] -0.001 | [6] -0.009 | [7] -0.049 | vorinostat 0.063 | silmitasertib -0.075 | [8] 0.042 | entospletinib -0.057

SLC20A1 (UniProt Q8WUM9)
inactive: nilotinib -0.021 | [1] -0.001 | dasatinib -0.023 | [2] -0.03 | [3] 0.007 | quisinostat -0.048 | tipifarnib -0.007 | [4] -0.034 | [5] 0.05 | [6] -0.099 | [7] 0 | vorinostat 0.062 | silmitasertib -0.05 | [8] 0.021 | entospletinib 0.064

Carrying on.

SLC16A1 (UniProt P53985)
inactive: nilotinib 0.044 | [1] 0.043 | dasatinib 0.137 | [2] -0.009 | [3] -0.005 | quisinostat -0.064 | tipifarnib 0.005 | [4] 0.012 | [5] -0.028 | [6] -0.003 | [7] 0.004 | silmitasertib -0.012 | [8] -0.01 | entospletinib 0.012
active: vorinostat -0.62

SFT2D2 (UniProt O95562)
inactive: nilotinib -0.126 | [1] 0.126 | dasatinib -0.108 | [2] -0.02 | [3] -0.078 | quisinostat 0.028 | tipifarnib 0.022 | [4] -0.044 | [5] -0.059 | [6] -0.098 | [7] 0.011 | vorinostat 0.055 | silmitasertib 0.026 | [8] -0.193 | entospletinib 0.049

SHC1 isoform 6 (UniProt P29353)
inactive: nilotinib 0.034 | [1] 0.011 | dasatinib 0.046 | [2] -0.02 | [3] -0.005 | quisinostat 0.022 | tipifarnib 0.006 | [4] -0.036 | [5] -0.029 | [6] -0.001 | [7] 0.029 | vorinostat 0.025 | silmitasertib -0.017 | [8] -0.055 | entospletinib -0.058

SGF29 (UniProt Q96ES7)
inactive: nilotinib -0.007 | [1] -0.012 | dasatinib 0.009 | [2] 0.027 | [3] 0.05 | quisinostat -0.041 | tipifarnib -0.017 | [4] 0.016 | [5] 0.033 | [6] -0.025 | [7] 0.052 | vorinostat -0.066 | silmitasertib 0.047 | [8] 0 | entospletinib 0.012

SERPINB6, A0A087X1N8
inactive: nilotinib 0.031 | [1] -0.011 | dasatinib 0.031 | [2] 0.009 | [3] -0.044 | quisinostat 0.023 | tipifarnib -0.001 | [4] 0.001 | [5] -0.021 | [6] 0.008 | [7] 0.014 | vorinostat 0.124 | silmitasertib -0.026 | [8] 0.001 | entospletinib -0.009

SFXN1 (UniProt Q9H9B4)
inactive: nilotinib -0.036 | [1] 0.004 | dasatinib -0.038 | [2] -0.005 | [3] 0.026 | quisinostat -0.028 | tipifarnib -0.074 | [4] 0.013 | [5] 0.005 | [6] 0.01 | [7] -0.034 | vorinostat 0.128 | silmitasertib -0.001 | [8] 0.006 | entospletinib 0

SETMAR (UniProt Q53H47)
inactive: nilotinib 0.013 | [1] 0.018 | dasatinib 0.066 | [2] 0.034 | [3] 0.038 | quisinostat -0.094 | tipifarnib -0.015 | [4] 0.019 | [5] 0.008 | [6] 0.115 | [7] -0.003 | vorinostat -0.022 | silmitasertib -0.03 | [8] 0.042 | entospletinib 0.028
